Data source: PubChem BioAssay AID1259290 (Sanger Institute, 2017)

- Test: 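siRNA screen across the kinome seeking synthetic lethal partners for BYL719, cetuximab or trametinib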 (primary screen)
- Cell system: human SNUC1 colorectal cancer cells
- Knock-down reagent: siRNA pool against human genes
- Treatment: anchor drugs BYL719 1 µM, cetuximab 5 µg/ml or trametinib 10 nM, or DMSO vehicle alone
- Measurement: 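Cell viability relative to a non-targeting siRNA control, replicate-averaged, as robust z-score for knock-down alone, plus a synergy score for each anchor drug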
- Scale: viability z-score, siRNA alone: higher = more viable cells; low values mean essential gene
- Call rule: 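Essential when the robust viability z-score with siRNA alone falls below -3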
- Calls: active = essential: knock-down alone cut viability (z below -3); inactive = no clear viability loss with knock-down alone
The whole screen tested 794 reagents; shown is a part drawn at random. 9 of them (1.1%) were called active. 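Calls rest on knock-down alone, not drug synergy; synergy above 0.15 was grouped apart and does not affect calls.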 Not all columns of the deposit are shown. The record does not give: the amount of reagent, the time to read-out.

target	PubChem SID	viability z-score, siRNA alone	activity call
PRKAR1B (protein kinase cAMP-dependent type I regulatory subunit beta)	SID152149404	0.936	inactive
DUSP21 (dual specificity phosphatase 21)	SID134312829	-0.571	inactive
MST1R (macrophage stimulating 1 receptor)	SID152152898	0.936	inactive
NEK10 (NIMA related kinase 10)	SID56478763	-0.367	inactive
PRKG1 (protein kinase cGMP-dependent 1)	SID152152064	-0.667	inactive
CKB (creatine kinase B)	SID56479084	0.347	inactive
GALK1 (galactokinase 1)	SID56479189	-2.06	inactive
PKM (pyruvate kinase M1/2)	SID135621254	0.0699	inactive
PXK (PX domain containing serine/threonine kinase like)	SID152149443	-0.347	inactive
NUAK2 (NUAK family kinase 2)	SID56479046	-2.31	inactive
CKS1B (CDC28 protein kinase regulatory subunit 1B)	SID56478807	-0.393	inactive
KSR2 (kinase suppressor of ras 2)	SID152149204	-0.291	inactive
DLG2 (discs large MAGUK scaffold protein 2)	SID152155470	0.345	inactive
PLK1 (polo like kinase 1)	SID56478632	-5.6	active
RAD21 (RAD21 cohesin complex component)	SID134311994	0.936	inactive
MAP2K3 (mitogen-activated protein kinase kinase 3)	SID152148115	-0.149	inactive
EPHA10 (EPH receptor A10)	SID135620971	-0.465	inactive
IDH2 (isocitrate dehydrogenase (NADP(+)) 2)	SID134310230	0.153	inactive
BTK (Bruton tyrosine kinase)	SID56478487	0.936	inactive
TNIK (TRAF2 and NCK interacting kinase)	SID152153870	0.936	inactive
PIP4K2A (phosphatidylinositol-5-phosphate 4-kinase type 2 alpha)	SID135621253	0.0186	inactive
ERBB3 (erb-b2 receptor tyrosine kinase 3)	SID135620617	0.199	inactive
STK31 (serine/threonine kinase 31)	SID135620977	0.131	inactive
GNAS (GNAS complex locus)	SID152155794	0.653	inactive
MAP3K3 (mitogen-activated protein kinase kinase kinase 3)	SID56478641	0.0578	inactive
GRK1 (G protein-coupled receptor kinase 1)	SID152156219	-0.851	inactive
CASK (calcium/calmodulin dependent serine protein kinase)	SID56479000	0.416	inactive
DCLK2 (doublecortin like kinase 2)	SID152154613	0.494	inactive
CSF1R (colony stimulating factor 1 receptor)	SID152152485	-0.644	inactive
PRPS1 (phosphoribosyl pyrophosphate synthetase 1)	SID56479145	-1.73	inactive
CKMT1B (creatine kinase, mitochondrial 1B)	SID135621236	0.936	inactive
SPHK2 (sphingosine kinase 2)	SID56478885	-1.26	inactive
PANK1 (pantothenate kinase 1)	SID56478765	0.936	inactive
MAGI1	SID152150294	0.441	inactive
EFNA5 (ephrin A5)	SID152151552	-0.411	inactive
CDKL3 (cyclin dependent kinase like 3)	SID56478871	0.0336	inactive
ACVRL1 (activin A receptor like type 1)	SID152155046	0.936	inactive
ABL2 (ABL proto-oncogene 2, non-receptor tyrosine kinase)	SID152153611	-0.924	inactive
ATR (ATR checkpoint kinase)	SID135620635	0.827	inactive
PKIB (cAMP-dependent protein kinase inhibitor beta)	SID56479212	-1.03	inactive

Active calls (from the list above):
target	PubChem SID	viability z-score, siRNA alone	activity call
PLK1 (polo like kinase 1)	SID56478632	-5.6	active

The list goes on.
target	PubChem SID	viability z-score, siRNA alone	activity call
TGFBR3 (transforming growth factor beta receptor 3)	SID152150530	0.936	inactive
TEC (tec protein tyrosine kinase)	SID152148252	0.936	inactive
PHKB (phosphorylase kinase regulatory subunit beta)	SID134312707	-0.0818	inactive
NME5 (NME/NM23 family member 5)	SID56479119	-1.82	inactive
PIK3CB	SID56478474	0.936	inactive
PAK4 (p21 (RAC1) activated kinase 4)	SID152147637	0.294	inactive
PIK3C3 (phosphatidylinositol 3-kinase catalytic subunit type 3)	SID134310831	0.936	inactive
RIPK1 (receptor interacting serine/threonine kinase 1)	SID152148235	-0.794	inactive
PIK3CG	SID56478988	0.682	inactive
CSNK1E (casein kinase 1 epsilon)	SID56478659	-0.0892	inactive
TGFBR1 (transforming growth factor beta receptor 1)	SID152153272	0.936	inactive
BUB1 (BUB1 mitotic checkpoint serine/threonine kinase)	SID152152440	0.93	inactive
CALM2 (calmodulin 2)	SID134320655	0.936	inactive
PGK1 (phosphoglycerate kinase 1)	SID56479130	0.853	inactive
CDK15 (cyclin dependent kinase 15)	SID56478852	-1.34	inactive
PIM2 (Pim-2 proto-oncogene, serine/threonine kinase)	SID56479034	0.936	inactive
CDK10 (cyclin dependent kinase 10)	SID152152801	-0.7	inactive
KALRN (kalirin RhoGEF kinase)	SID134314670	-1.1	inactive
MAP3K15 (mitogen-activated protein kinase kinase kinase 15)	SID152147179	0	inactive
PSTK (phosphoseryl-tRNA kinase)	SID134320501	0.925	inactive
STYK1 (STY kinase 1)	SID56478493	-0.39	inactive
TSSK2 (testis specific serine kinase 2)	SID56479050	-0.243	inactive
CERT1 (ceramide transporter 1)	SID56479254	0.376	inactive
